# Data from US20250387438A1, “USE OF […] SP. OR COMPOSITION COMPRISING SAME IN PREVENTION OR TREATMENT OF TUMORS, AND DRUG COMPRISING SAME” (Moon (Guangzhou) Biotech Co., Ltd., priority 2022, published 2025).
# At least one structure is not confirmed: it was looked up by name or label, or the drawing left a doubt.
# Tested on: Christensenella sp. MNH04863
# Experiment: Antibiotic susceptibility testing by disk diffusion method
# Type: cell-based
# Source text: The disk diffusion method was used to conduct the antibiotic susceptibility testing of Christensenella sp. MNH04863. Christensenella sp.
smiles,measurement,value
"CN(C)[C@@H]1C(O)=C(C(N)=O)C(=O)[C@@]2(O)C(O)=C3C(=O)c4c(O)cccc4[C@@](C)(O)[C@H]3C[C@@H]12 [Tetracycline (TET), Tetracycline]",Susceptibility of Christensenella sp. MNH04863 to the antibiotic,sensitive
